Experiment [1] concerns the target T1, hyperphosphorylated UPF1 (UPF1-HP) (human) (UniProt Q92900).
T1 sequence (chain, hyperphosphorylated (sites not printed)): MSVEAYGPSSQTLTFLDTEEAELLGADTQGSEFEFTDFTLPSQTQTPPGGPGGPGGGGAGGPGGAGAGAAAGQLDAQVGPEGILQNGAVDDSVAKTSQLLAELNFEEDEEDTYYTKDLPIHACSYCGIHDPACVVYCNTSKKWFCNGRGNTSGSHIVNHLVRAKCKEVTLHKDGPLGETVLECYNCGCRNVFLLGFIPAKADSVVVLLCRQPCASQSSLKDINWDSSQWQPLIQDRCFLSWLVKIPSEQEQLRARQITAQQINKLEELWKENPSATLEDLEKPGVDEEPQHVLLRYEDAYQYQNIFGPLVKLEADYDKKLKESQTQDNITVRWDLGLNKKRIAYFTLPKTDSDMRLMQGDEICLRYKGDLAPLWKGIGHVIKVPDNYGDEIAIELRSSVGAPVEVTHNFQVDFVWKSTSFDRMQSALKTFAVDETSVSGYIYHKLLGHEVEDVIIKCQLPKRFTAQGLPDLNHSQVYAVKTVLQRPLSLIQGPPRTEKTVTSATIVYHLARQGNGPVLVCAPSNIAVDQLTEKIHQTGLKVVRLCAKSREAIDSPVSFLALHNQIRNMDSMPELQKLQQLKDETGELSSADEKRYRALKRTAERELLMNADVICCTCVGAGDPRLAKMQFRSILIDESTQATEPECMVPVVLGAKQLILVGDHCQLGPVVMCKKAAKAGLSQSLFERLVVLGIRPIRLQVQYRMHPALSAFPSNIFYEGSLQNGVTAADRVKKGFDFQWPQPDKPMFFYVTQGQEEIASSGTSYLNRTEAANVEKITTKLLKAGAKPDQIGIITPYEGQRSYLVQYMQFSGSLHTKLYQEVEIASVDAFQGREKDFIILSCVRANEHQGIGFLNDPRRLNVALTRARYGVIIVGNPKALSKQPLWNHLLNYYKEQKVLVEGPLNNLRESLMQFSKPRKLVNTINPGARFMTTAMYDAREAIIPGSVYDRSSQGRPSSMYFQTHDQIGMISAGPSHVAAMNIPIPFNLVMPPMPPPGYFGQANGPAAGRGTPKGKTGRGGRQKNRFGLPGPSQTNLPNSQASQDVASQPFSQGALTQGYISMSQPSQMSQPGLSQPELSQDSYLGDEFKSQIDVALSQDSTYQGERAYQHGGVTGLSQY
As to the kind of experiment: co-IP; IP of UPF1-WT, UPF1-HP or UPF1-HP-12A, with or without MG132 (Supplementary Fig. 3b).

Protein sequences, listed by entry. Tags and fused reporters are not part of them.
UniProt P68104: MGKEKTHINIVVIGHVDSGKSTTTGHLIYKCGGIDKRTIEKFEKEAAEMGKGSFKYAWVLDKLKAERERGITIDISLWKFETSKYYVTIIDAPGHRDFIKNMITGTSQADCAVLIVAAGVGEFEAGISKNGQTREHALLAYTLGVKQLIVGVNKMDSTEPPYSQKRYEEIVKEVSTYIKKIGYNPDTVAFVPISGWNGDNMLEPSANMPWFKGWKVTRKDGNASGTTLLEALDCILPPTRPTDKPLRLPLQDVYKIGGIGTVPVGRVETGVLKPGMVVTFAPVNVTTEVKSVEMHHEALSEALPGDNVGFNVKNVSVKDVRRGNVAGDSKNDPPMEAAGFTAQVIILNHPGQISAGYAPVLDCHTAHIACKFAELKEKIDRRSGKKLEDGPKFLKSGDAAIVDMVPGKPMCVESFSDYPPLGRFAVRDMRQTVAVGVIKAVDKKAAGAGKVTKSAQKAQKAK
UniProt Q14203: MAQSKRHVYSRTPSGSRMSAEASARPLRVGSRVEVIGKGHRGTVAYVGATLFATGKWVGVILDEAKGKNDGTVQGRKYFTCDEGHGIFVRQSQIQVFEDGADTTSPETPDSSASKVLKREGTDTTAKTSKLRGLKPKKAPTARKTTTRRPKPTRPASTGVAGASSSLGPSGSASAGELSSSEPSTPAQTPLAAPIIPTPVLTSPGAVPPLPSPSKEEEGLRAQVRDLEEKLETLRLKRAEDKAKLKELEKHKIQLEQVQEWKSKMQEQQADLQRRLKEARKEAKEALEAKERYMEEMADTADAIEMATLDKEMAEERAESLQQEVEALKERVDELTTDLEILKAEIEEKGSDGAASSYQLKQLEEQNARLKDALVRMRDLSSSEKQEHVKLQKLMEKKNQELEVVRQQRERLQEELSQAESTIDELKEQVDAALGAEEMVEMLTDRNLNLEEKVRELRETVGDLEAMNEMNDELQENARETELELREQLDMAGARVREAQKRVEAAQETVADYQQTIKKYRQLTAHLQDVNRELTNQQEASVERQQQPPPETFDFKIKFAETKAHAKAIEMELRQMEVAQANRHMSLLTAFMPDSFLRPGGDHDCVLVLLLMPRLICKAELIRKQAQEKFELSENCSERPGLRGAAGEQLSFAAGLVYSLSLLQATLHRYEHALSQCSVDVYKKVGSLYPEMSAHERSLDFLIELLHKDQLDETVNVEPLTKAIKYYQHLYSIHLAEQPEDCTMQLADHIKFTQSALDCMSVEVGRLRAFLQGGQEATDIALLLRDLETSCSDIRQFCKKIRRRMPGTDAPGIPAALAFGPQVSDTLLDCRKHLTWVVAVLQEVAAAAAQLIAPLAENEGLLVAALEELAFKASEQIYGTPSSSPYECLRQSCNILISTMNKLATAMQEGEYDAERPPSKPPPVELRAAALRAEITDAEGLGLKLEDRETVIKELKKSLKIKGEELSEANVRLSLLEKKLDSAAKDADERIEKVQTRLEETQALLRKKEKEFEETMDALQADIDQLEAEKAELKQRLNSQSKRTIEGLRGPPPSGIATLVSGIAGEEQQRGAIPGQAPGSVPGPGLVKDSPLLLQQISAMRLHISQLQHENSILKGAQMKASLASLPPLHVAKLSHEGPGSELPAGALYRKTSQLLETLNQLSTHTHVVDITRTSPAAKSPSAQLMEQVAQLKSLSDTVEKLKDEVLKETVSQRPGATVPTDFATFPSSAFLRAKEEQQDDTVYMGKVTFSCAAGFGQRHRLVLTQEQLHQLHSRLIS

In a further experiment the target is T2, FLAG-CTIF (UniProt O43310).
T2 sequence: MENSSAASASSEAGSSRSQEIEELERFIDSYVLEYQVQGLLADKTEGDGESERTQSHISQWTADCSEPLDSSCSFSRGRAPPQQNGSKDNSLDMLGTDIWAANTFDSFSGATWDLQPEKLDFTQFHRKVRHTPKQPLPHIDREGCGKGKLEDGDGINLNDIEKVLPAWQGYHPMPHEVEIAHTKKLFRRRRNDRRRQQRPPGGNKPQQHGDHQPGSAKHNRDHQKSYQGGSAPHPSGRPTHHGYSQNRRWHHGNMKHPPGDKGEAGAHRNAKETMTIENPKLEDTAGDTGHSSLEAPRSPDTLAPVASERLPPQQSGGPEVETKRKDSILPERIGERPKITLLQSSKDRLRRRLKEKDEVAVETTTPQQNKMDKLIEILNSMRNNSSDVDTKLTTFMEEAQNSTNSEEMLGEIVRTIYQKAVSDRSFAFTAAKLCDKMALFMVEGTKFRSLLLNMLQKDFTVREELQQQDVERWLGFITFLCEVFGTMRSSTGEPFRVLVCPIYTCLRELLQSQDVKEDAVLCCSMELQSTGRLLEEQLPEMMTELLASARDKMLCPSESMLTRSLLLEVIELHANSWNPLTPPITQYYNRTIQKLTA
The experiment in a line: co-IP; IP of FLAG-CTIF with α-FLAG antibody from HEK293T extracts, western blot; cells undepleted or depleted of YTHDF2, with or without MG132 (Supplementary Fig. 3a, Fig. 8b). (In general: In western blotting, separated proteins are transferred to a membrane and probed.)

Experiment [2] deals with T3, YT521-B homology domain-containing family protein 2 (YTHDF2), endogenous (human (endogenous in HEK293T)) (UniProt Q9Y5A9).
T3 sequence: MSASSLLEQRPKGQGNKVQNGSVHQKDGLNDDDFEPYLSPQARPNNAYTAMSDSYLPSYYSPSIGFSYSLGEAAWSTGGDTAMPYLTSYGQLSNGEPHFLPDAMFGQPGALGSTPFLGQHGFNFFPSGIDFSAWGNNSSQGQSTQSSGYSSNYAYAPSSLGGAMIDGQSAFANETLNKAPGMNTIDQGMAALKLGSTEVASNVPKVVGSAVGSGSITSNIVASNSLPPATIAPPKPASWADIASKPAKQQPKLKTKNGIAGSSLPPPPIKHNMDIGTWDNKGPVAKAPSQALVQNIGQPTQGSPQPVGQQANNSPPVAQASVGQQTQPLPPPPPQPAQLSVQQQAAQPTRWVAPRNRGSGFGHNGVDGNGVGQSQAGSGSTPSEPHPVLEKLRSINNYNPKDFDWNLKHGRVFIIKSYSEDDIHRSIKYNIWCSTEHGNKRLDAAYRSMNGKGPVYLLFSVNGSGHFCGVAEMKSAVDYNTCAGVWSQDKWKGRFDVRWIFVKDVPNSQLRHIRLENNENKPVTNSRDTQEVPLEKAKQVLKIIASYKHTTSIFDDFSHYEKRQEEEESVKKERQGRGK
As to the kind of experiment: co-IP; IP with an antibody against endogenous YTHDF1, YTHDF2 or YTHDF3 from HEK293T extracts in NET-2 buffer (50 mM Tris-HCl pH 7.4, 150 mM NaCl, 0.05% NP-40), 3 h at 4 °C, western blot; cells treated with MG132 12 h (Fig. 2f), or with DMSO or MG132, with or without UPF1 siRNA (Fig. 3a).

The target of experiment [3] is T4, Myc-YTHDF2-wild type (WT) (human) (UniProt Q9Y5A9).
T4 sequence: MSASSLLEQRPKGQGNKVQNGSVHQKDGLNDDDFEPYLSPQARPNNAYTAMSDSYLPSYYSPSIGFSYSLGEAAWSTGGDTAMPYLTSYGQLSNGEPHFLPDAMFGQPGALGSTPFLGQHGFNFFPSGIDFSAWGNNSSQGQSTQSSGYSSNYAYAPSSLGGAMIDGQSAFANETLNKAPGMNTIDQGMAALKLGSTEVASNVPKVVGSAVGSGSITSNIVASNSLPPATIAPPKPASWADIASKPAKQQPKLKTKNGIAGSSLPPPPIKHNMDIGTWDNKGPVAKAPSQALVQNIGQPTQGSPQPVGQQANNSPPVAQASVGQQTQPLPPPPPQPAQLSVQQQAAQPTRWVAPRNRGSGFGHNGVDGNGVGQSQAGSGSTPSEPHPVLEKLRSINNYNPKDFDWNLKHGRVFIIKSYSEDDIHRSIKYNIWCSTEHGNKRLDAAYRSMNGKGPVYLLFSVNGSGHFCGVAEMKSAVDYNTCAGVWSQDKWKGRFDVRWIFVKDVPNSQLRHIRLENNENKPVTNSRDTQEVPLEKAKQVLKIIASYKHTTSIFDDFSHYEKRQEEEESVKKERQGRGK
The experiment in a line: co-IP; IP with α-Myc antibody from extracts of HEK293T cells transfected with Myc-YTHDF2 (WT or variant), western blot; DMSO or MG132 12 h (Fig. 3b), two days after transfection (Fig. 4a).

These are yes or no findings as the source states them, for the method shown. Binding seen in cells or lysates may run through a third protein. Some entries that bind do so weakly or less than the wild type. For part of these data: Where a sequence is shown, tags or fusion partners need not be part of it.

“eukaryotic translation elongation factor 1 alpha 1 (eEF1A1), endogenous (from UniProt P68104 1-462)”: the binding result (in experiment [1]; with FLAG-CTIF) was “binds” each time.
“dynactin 1 (DCTN1), endogenous (from UniProt Q14203 1-1278)”: the binding result in experiment [1] is “binds”.

B1: upstream frameshift 1 (UPF1), endogenous (protein, UniProt Q92900 1-1129)
chain: MSVEAYGPSSQTLTFLDTEEAELLGADTQGSEFEFTDFTLPSQTQTPPGGPGGPGGGGAGGPGGAGAGAAAGQLDAQVGPEGILQNGAVDDSVAKTSQLLAELNFEEDEEDTYYTKDLPIHACSYCGIHDPACVVYCNTSKKWFCNGRGNTSGSHIVNHLVRAKCKEVTLHKDGPLGETVLECYNCGCRNVFLLGFIPAKADSVVVLLCRQPCASQSSLKDINWDSSQWQPLIQDRCFLSWLVKIPSEQEQLRARQITAQQINKLEELWKENPSATLEDLEKPGVDEEPQHVLLRYEDAYQYQNIFGPLVKLEADYDKKLKESQTQDNITVRWDLGLNKKRIAYFTLPKTDSGNEDLVIIWLRDMRLMQGDEICLRYKGDLAPLWKGIGHVIKVPDNYGDEIAIELRSSVGAPVEVTHNFQVDFVWKSTSFDRMQSALKTFAVDETSVSGYIYHKLLGHEVEDVIIKCQLPKRFTAQGLPDLNHSQVYAVKTVLQRPLSLIQGPPGTGKTVTSATIVYHLARQGNGPVLVCAPSNIAVDQLTEKIHQTGLKVVRLCAKSREAIDSPVSFLALHNQIRNMDSMPELQKLQQLKDETGELSSADEKRYRALKRTAERELLMNADVICCTCVGAGDPRLAKMQFRSILIDESTQATEPECMVPVVLGAKQLILVGDHCQLGPVVMCKKAAKAGLSQSLFERLVVLGIRPIRLQVQYRMHPALSAFPSNIFYEGSLQNGVTAADRVKKGFDFQWPQPDKPMFFYVTQGQEEIASSGTSYLNRTEAANVEKITTKLLKAGAKPDQIGIITPYEGQRSYLVQYMQFSGSLHTKLYQEVEIASVDAFQGREKDFIILSCVRANEHQGIGFLNDPRRLNVALTRARYGVIIVGNPKALSKQPLWNHLLNYYKEQKVLVEGPLNNLRESLMQFSKPRKLVNTINPGARFMTTAMYDAREAIIPGSVYDRSSQGRPSSMYFQTHDQIGMISAGPSHVAAMNIPIPFNLVMPPMPPPGYFGQANGPAAGRGTPKGKTGRGGRQKNRFGLPGPSQTNLPNSQASQDVASQPFSQGALTQGYISMSQPSQMSQPGLSQPELSQDSYLGDEFKSQIDVALSQDSTYQGERAYQHGGVTGLSQY
Consider B1, for which the binding result (in experiment [2]; in the experiment with FLAG-CTIF; in experiment [3]) was “binds” in each case.

(Values after paper PMC10558514.)
